± gives the standard deviation of the averaged measurements. Small differences around the control level are noise.
Legend:
Assay in all cases: level (log10 ratio to DMSO vehicle control); higher = higher biomarker level / cell amount than vehicle control
[1] = compound: O=C(O)C(F)(F)C(F)(F)C(F)(F)OC(F)(F)F [Perfluoro(4-methoxybutanoic) acid]; details: 2200 nM; in DMSO
Method: (§1)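 BioMAP Diversity Plus panel of 12 human primary cell co-culture systems (3C, 4H, LPS, SAg, BT, BF4T, BE3C, CASM3C, HDF3CGF, KF3CT, MyoF, Mphg). Compounds were added 1 h before stimulation and left for 24 h (MyoF 48 h; BT 72 h for soluble read-outs or 6 d for IgG). Biomarkers were read by ELISA, cytotoxicity by SRB, PBMC viability and proliferation by Alamar Blue. Each well value was divided by the mean of 8 DMSO control wells on the same plate and log10 transformed; duplicate blinded samples were tested at 4 concentrations.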

[2] = compound: CCN(CCO)S(=O)(=O)C(F)(F)C(F)(F)C(F)(F)C(F)(F)C(F)(F)C(F)(F)C(F)(F)C(F)(F)F [N-Ethyl-N-(2-hydroxyethyl)perfluorooctanesulfonamide]; details: in DMSO
Method: as §1

[3] = compound: O=S(=O)(O)CCC(F)(F)C(F)(F)C(F)(F)C(F)(F)C(F)(F)C(F)(F)C(F)(F)C(F)(F)F [8:2 Fluorotelomer sulfonic acid]; details: in DMSO
Method: as §1

[4] = compound: OCCC(F)(F)C(F)(F)C(F)(F)C(F)(F)C(F)(F)C(F)(F)F [6:2 Fluorotelomer alcohol]; details: 2200 nM; in DMSO
Method: as §1

[5] = compound: FC(F)(F)C(F)(F)C(F)(F)C(F)(F)C(F)(F)C(F)(F)CC1CO1 [3-(Perfluorohexyl)-1,2-epoxypropane]; details: 2200 nM; in DMSO
Method: as §1

[6] = compound: CN(C(=O)C(F)(F)C(F)(F)C(F)(F)F)[Si](C)(C)C [N-Methyl-N-trimethylsilylheptafluorobutyramide]; details: 2200 nM; in DMSO
Method: as §1

[7] = compound: NCC(F)(F)C(F)(F)C(F)(F)C(F)(F)C(F)(F)C(F)(F)C(F)(F)F [1H,1H-Perfluorooctylamine]; details: 2200 nM; in DMSO
Method: as §1

[8] = compound: CC(C)(C)C(=O)CC(=O)C(F)(F)C(F)(F)C(F)(F)F [(Heptafluorobutanoyl)pivaloylmethane]; details: 2200 nM; in DMSO
Method: as §1

Perfluoroheptanoic acid = compound: O=C(O)C(F)(F)C(F)(F)C(F)(F)C(F)(F)C(F)(F)C(F)(F)F [Perfluoroheptanoic acid]; details: in DMSO
Method: as §1

Octafluoroadipic acid = compound: O=C(O)C(F)(F)C(F)(F)C(F)(F)C(F)(F)C(=O)O [Octafluoroadipic acid]; details: 2200 nM; in DMSO
Method: as §1

1H,1H-Heptafluorobutanol = compound: OCC(F)(F)C(F)(F)C(F)(F)F [1H,1H-Heptafluorobutanol]; details: 2200 nM; in DMSO
Method: as §1

1-(Perfluorohexyl)octane = compound: CCCCCCCCC(F)(F)C(F)(F)C(F)(F)C(F)(F)C(F)(F)C(F)(F)F [1-(Perfluorohexyl)octane]; details: in DMSO
Method: as §1

[9] = compound: O=C(O)C(F)(F)C(F)(F)C(F)(F)C(F)(F)C(F)(F)C(F)(F)C(F)(F)C(F)(F)C(F)(F)C(F)F [11-H-Perfluoroundecanoic acid]; details: 2200 nM; in DMSO
Method: as §1

Perfluoropentanoic acid = compound: O=C(O)C(F)(F)C(F)(F)C(F)(F)C(F)(F)F [Perfluoropentanoic acid]; details: in DMSO
Method: as §1

Heptafluorobutyramide = compound: NC(=O)C(F)(F)C(F)(F)C(F)(F)F [Heptafluorobutyramide]; details: 2200 nM; in DMSO
Method: as §1

[10] = compound: Cc1ccc(S(=O)(=O)OCC(F)(F)C(F)(F)C(F)(F)C(F)(F)C(F)(F)C(F)F)cc1 [1H,1H,7H-Perfluoroheptyl 4-methylbenzenesulfonate]; details: 2200 nM; in DMSO
Method: as §1

Test System	level (log10) [1]	level (log10) ([2]; 2200 nM)	level (log10) ([2]; 6700 nM)	level (log10) ([2]; 20000 nM)	level (log10) ([3]; 2200 nM)	level (log10) ([3]; 6700 nM)	level (log10) ([3]; 20000 nM)	level (log10) ([3]; 60000 nM)	level (log10) [4]	level (log10) [5]	level (log10) [6]	level (log10) [7]	level (log10) [8]	level (log10) (Perfluoroheptanoic acid; 2200 nM)	level (log10) (Perfluoroheptanoic acid; 6700 nM)	level (log10) (Perfluoroheptanoic acid; 20000 nM)	level (log10) (Perfluoroheptanoic acid; 60000 nM)	level (log10) (Octafluoroadipic acid)	level (log10) (1H,1H-Heptafluorobutanol)	level (log10) (1-(Perfluorohexyl)octane; 740 nM)	level (log10) (1-(Perfluorohexyl)octane; 2200 nM)	level (log10) [9]	level (log10) (Perfluoropentanoic acid; 2200 nM)	level (log10) (Perfluoropentanoic acid; 6700 nM)	level (log10) (Perfluoropentanoic acid; 20000 nM)	level (log10) (Perfluoropentanoic acid; 60000 nM)	level (log10) (Heptafluorobutyramide)	level (log10) [10]
BE3C:EGFR	0.011 ± 0.018	-0.0105 ± 0.0064	-0.02 ± 0.0014	-0.072 ± 0.0057	0 ± 0.0099	0.002 ± 0.0028	-0.014 ± 0.018	0.004 ± 0.0099	0.0175 ± 0.06	0.0015 ± 0.029	-0.0125 ± 0.011	-0.0045 ± 0.0078	0.0135 ± 0.03	0.02 ± 0.027	-0.0065 ± 0.0078	0.0045 ± 0.0021	-0.0005 ± 0.033	-0.001 ± 0.014	-0.001 ± 0.0042	-0.0035 ± 0.019	-0.006 ± 0.013	-0.0135 ± 0.00071	0.001 ± 0.017	-0.0025 ± 0.021	-0.011 ± 0.0057	0.004 ± 0.018	-0.0065 ± 0.023	-0.008 ± 0.0099
LPS:M-CSF	0.0075 ± 0.0035	0.0115 ± 0.033	0.0495 ± 0.033	0.104 ± 0.041	0.037 ± 0.025	-0.016 ± 0.041	0.0075 ± 0.054	-0.0795 ± 0.088	0.004 ± 0.014	0.0085 ± 0.0064	0.0025 ± 0.015	0.0025 ± 0.044	-0.002 ± 0.0014	-0.016 ± 0.044	-0.028 ± 0.024	-0.008 ± 0.018	-0.007 ± 0.038	0.0055 ± 0.025	0.0415 ± 0.019	0.0035 ± 0.094	-0.014 ± 0.054	0.0215 ± 0.019	-0.0085 ± 0.00071	-0.031 ± 0.024	-0.061 ± 0.11	-0.0385 ± 0.11	0.006 ± 0.016	0.017 ± 0.061
4H:CD87/uPAR	0.0405 ± 0.033	-0.0285 ± 0.0064	-0.037 ± 0.037	-0.088 ± 0.024	0.0035 ± 0.00071	0.026 ± 0.0028	-0.01 ± 0.023	-0.0345 ± 0.015	-0.0205 ± 0.0035	0.0535 ± 0.096	0.014 ± 0.03	-0.0205 ± 0.043	-0.0025 ± 0.0092	0.0445 ± 0.011	0.0355 ± 0.042	-0.007 ± 0.054	0.061 ± 0.14	0.045 ± 0.02	0.0165 ± 0.0021	0.0135 ± 0.0021	0.0015 ± 0.00071	0.0195 ± 0.028	-0.023 ± 0.025	-0.0435 ± 0.035	-0.0355 ± 0.005	-0.055 ± 0.0028	0.0455 ± 0.0064	0.0125 ± 0.0064
3C:SRB	-0.0205 ± 0.0021	-0.029 ± 0.018	-0.0815 ± 0.021	-0.217 ± 0.011	-0.0165 ± 0.00071	-0.017 ± 0.0057	-0.019 ± 0.018	-0.0705 ± 0.028	-0.025 ± 0.0028	0.0075 ± 0.0035	0.0045 ± 0.022	0 ± 0.013	0.001 ± 0.0042	-0.008 ± 0.0071	-0.0065 ± 0.0078	0.005 ± 0.0085	-0.0255 ± 0.0035	-0.0235 ± 0.018	-0.007 ± 0.0057	0.0165 ± 0.0078	0.002 ± 0.017	0.01 ± 0.033	-0.0135 ± 0.021	-0.0115 ± 0.013	0.001 ± 0.014	0.007 ± 0.018	-0.016 ± 0.0028	0.0045 ± 0.043
3C:CXCL9/MIG	-0.001 ± 0.011	0.0055 ± 0.005	-0.013 ± 0.0085	-0.006 ± 0.0085	0.0075 ± 0.00071	-0.004 ± 0.0014	0.004 ± 0.013	-0.0045 ± 0.0035	0.0095 ± 0.0064	0.006 ± 0.011	-0.006 ± 0.0042	-0.0115 ± 0.0092	-0.007 ± 0.0014	0.01	0.0115 ± 0.0035	-0.01 ± 0.0071	0.0135 ± 0.0078	0.002 ± 0.011	0 ± 0.0028	-0.0035 ± 0.023	0.0035 ± 0.026	0.0115 ± 0.0035	0.001 ± 0.0014	-0.0085 ± 0.018	-0.0125 ± 0.03	0.0095 ± 0.028	-0.007 ± 0.0014	0.0095 ± 0.005
BE3C:CXCL10/IP-10	0.0025 ± 0.021	-0.0175 ± 0.013	-0.051 ± 0.0028	-0.141 ± 0.028	-0.005 ± 0.0085	-0.0205 ± 0.012	-0.122 ± 0.019	-0.237 ± 0.02	0.01 ± 0.0099	0.0095 ± 0.0078	-0.0015 ± 0.00071	0.002 ± 0.0071	0.0115 ± 0.06	0.0025 ± 0.0078	0.0055 ± 0.022	0.0065 ± 0.0092	0.0045 ± 0.011	0.0165 ± 0.00071	0.0335 ± 0.0078	0.0025 ± 0.018	-0.0035 ± 0.0078	-0.03 ± 0.0014	0.0055 ± 0.022	-0.0085 ± 0.016	-0.013 ± 0.021	0.0005 ± 0.005	0.002 ± 0.0099	-0.0055 ± 0.016
MyoF:Decorin	-0.0795 ± 0.094	0.0025 ± 0.0064	-0.0095 ± 0.016	-0.085 ± 0.028	0.0305 ± 0.022	0.0555 ± 0.029	0.024 ± 0.03	-0.001 ± 0.0014	0.014 ± 0.037	0.013 ± 0.038	0.0055 ± 0.018	-0.025 ± 0.025	0.0135 ± 0.059	0.012 ± 0.033	-0.0015 ± 0.013	0.036 ± 0.0042	0.0505 ± 0.035	-0.009 ± 0.011	0.0145 ± 0.0064	0.014 ± 0.014	0.002	0.021 ± 0.04	-0.013 ± 0.0057	-0.015 ± 0.0028	-0.0125 ± 0.0092	0.005 ± 0.048	-0.0575 ± 0.1	0.0235 ± 0.0021
lMphg:CD106/VCAM-1	-0.0165 ± 0.033	-0.01 ± 0.0028	-0.037 ± 0.03	-0.0435 ± 0.035	-0.0125 ± 0.0021	-0.0355 ± 0.005	-0.042 ± 0.0071	-0.08 ± 0.0057	-0.006 ± 0.0071	0.013 ± 0.013	-0.03 ± 0.0071	-0.0045 ± 0.011	-0.016 ± 0.018	0.007 ± 0.013	-0.0115 ± 0.005	0.001 ± 0.0014	-0.0095 ± 0.032	-0.0185 ± 0.005	0.0185 ± 0.0021	-0.0485 ± 0.083	-0.0345 ± 0.061	-0.017 ± 0.014	-0.0055 ± 0.0064	0.005 ± 0.02	0.0125 ± 0.018	0.016 ± 0.0057	0	-0.0365 ± 0.07
BE3C:uPA	0.007 ± 0.0085	0.0035 ± 0.013	-0.0025 ± 0.022	-0.018 ± 0.031	-0.001 ± 0.018	0.006 ± 0.0071	0.0055 ± 0.0035	-0.002 ± 0.0028	0.0015 ± 0.0064	-0.0005 ± 0.0078	0.007 ± 0.014	0.002 ± 0.0057	-0.009 ± 0.014	0.004 ± 0.013	-0.002 ± 0.0042	0.0055 ± 0.0035	0.0255 ± 0.015	-0.0035 ± 0.013	-0.009 ± 0.0028	0.001 ± 0.0014	-0.0045 ± 0.012	-0.0115 ± 0.0092	0.008 ± 0.013	-0.0115 ± 0.0021	-0.013 ± 0.0057	0.004 ± 0.018	-0.01 ± 0.024	0.004

Full records from above. Order of values: level (log10) [1] | level (log10) ([2]; 2200 nM) | level (log10) ([2]; 6700 nM) | level (log10) ([2]; 20000 nM) | level (log10) ([3]; 2200 nM) | level (log10) ([3]; 6700 nM) | level (log10) ([3]; 20000 nM) | level (log10) ([3]; 60000 nM) | level (log10) [4] | level (log10) [5] | level (log10) [6] | level (log10) [7] | level (log10) [8] | level (log10) (Perfluoroheptanoic acid; 2200 nM) | level (log10) (Perfluoroheptanoic acid; 6700 nM) | level (log10) (Perfluoroheptanoic acid; 20000 nM) | level (log10) (Perfluoroheptanoic acid; 60000 nM) | level (log10) (Octafluoroadipic acid) | level (log10) (1H,1H-Heptafluorobutanol) | level (log10) (1-(Perfluorohexyl)octane; 740 nM) | level (log10) (1-(Perfluorohexyl)octane; 2200 nM) | level (log10) [9] | level (log10) (Perfluoropentanoic acid; 2200 nM) | level (log10) (Perfluoropentanoic acid; 6700 nM) | level (log10) (Perfluoropentanoic acid; 20000 nM) | level (log10) (Perfluoropentanoic acid; 60000 nM) | level (log10) (Heptafluorobutyramide) | level (log10) [10]
BE3C:uPA reads 0.007 ± 0.0085 | 0.0035 ± 0.013 | -0.0025 ± 0.022 | -0.018 ± 0.031 | -0.001 ± 0.018 | 0.006 ± 0.0071 | 0.0055 ± 0.0035 | -0.002 ± 0.0028 | 0.0015 ± 0.0064 | -0.0005 ± 0.0078 | 0.007 ± 0.014 | 0.002 ± 0.0057 | -0.009 ± 0.014 | 0.004 ± 0.013 | -0.002 ± 0.0042 | 0.0055 ± 0.0035 | 0.0255 ± 0.015 | -0.0035 ± 0.013 | -0.009 ± 0.0028 | 0.001 ± 0.0014 | -0.0045 ± 0.012 | -0.0115 ± 0.0092 | 0.008 ± 0.013 | -0.0115 ± 0.0021 | -0.013 ± 0.0057 | 0.004 ± 0.018 | -0.01 ± 0.024 | 0.004
BE3C:EGFR reads 0.011 ± 0.018 | -0.0105 ± 0.0064 | -0.02 ± 0.0014 | -0.072 ± 0.0057 | 0 ± 0.0099 | 0.002 ± 0.0028 | -0.014 ± 0.018 | 0.004 ± 0.0099 | 0.0175 ± 0.06 | 0.0015 ± 0.029 | -0.0125 ± 0.011 | -0.0045 ± 0.0078 | 0.0135 ± 0.03 | 0.02 ± 0.027 | -0.0065 ± 0.0078 | 0.0045 ± 0.0021 | -0.0005 ± 0.033 | -0.001 ± 0.014 | -0.001 ± 0.0042 | -0.0035 ± 0.019 | -0.006 ± 0.013 | -0.0135 ± 0.00071 | 0.001 ± 0.017 | -0.0025 ± 0.021 | -0.011 ± 0.0057 | 0.004 ± 0.018 | -0.0065 ± 0.023 | -0.008 ± 0.0099

Source: the supplement of paper PMC10331698
